Data reported in publication PMC11898703.
No constants are given. Whether binding was seen depends on the method and setting. Some entries that bind do so weakly or less than the wild type.

By UniProt entry, the sequences of proteins in these tests, tags left out.
UniProt Q18CX4: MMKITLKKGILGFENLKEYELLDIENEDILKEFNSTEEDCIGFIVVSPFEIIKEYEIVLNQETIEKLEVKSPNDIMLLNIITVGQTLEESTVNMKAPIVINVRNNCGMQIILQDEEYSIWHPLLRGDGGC
UniProt Q18CX3: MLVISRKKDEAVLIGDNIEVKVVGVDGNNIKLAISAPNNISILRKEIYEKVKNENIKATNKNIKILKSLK

Molecular target: FliW-T25 (Clostridioides difficile) (UniProt Q18CX4)
Assay: two-hybrid; bacterial two-hybrid (BACTH) in E. coli BTH101; T25 and T18 fusions co-transformed; cultures dotted on LB-X-Gal-IPTG indicator plates, blue colonies positive, white colonies no interaction

With CsrA-T18 (from UniProt Q18CX3 1-70) the binding was “binds”.
